# Measured values published in the supplement of paper PMC3334620.
# The full ranking holds about 33,000 sequences; the median of “E-score (-0.5 to 0.5)” is about -0.0034, and the highest 2% start at about 0.25. The list shows a part of the results.
# Biological target: T1, Yap3 (UniProt P38749)
# T1 sequence: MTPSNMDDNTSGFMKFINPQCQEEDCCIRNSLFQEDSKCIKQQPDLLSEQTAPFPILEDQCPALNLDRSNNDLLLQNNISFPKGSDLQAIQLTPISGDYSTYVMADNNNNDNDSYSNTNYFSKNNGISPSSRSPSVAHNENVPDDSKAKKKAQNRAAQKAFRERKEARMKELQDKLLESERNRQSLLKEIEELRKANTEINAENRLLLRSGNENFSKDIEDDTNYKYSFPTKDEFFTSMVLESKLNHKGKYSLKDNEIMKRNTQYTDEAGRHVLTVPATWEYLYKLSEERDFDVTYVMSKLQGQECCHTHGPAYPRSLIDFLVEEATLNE
# Test: PBM E-score (8-mer binding enrichment) (E-score (-0.5 to 0.5)); higher = stronger / more preferred TF binding
# Conditions: protein concentration: 100 nM; construct: GST-full length
# How it was run: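 For each ungapped eight-base word taken together with its reverse complement, the Universal PBM Analysis Suite assigned an E-score. Binding data came from GST-tagged yeast transcription factors, applied at about 100-200 nM, on universal all-10-mer Agilent arrays made double-stranded by primer extension. Fluorescent anti-GST marked bound protein, and scans were normalised with masliner.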
row,Sequence,PBM E-score
1,TGATTCAA,0.0187
2,CACATGGA,-0.154
3,CTGAACGC,-0.109
4,CAATACGC,0.0749
5,CCGGCCGG,-0.151
6,AGAAGTCC,-0.248
7,CCCGGCAA,-0.169
8,GCCCTGCC,-0.261
9,AGGTGAGG,0.0455
10,TTCCTAAA,-0.0151
11,GCATCACC,-0.175
12,GGTGACAA,0.14
13,AAGAGGTG,0.133
14,CTACCGCA,-0.0328
15,CATAATCG,0.187
16,ATTAAGTC,0.127
17,CTGAAGTC,-0.0743
18,ACTCTAAA,0.0706
19,TCGGCGAA,0.0737
20,AGCGCGCT,0.123
21,GCTTGCCA,0.00223
22,AGGTATTA,0.209
23,ACTACTAG,0.202
24,CTTTCGTA,0.159
25,ACGCTAGG,-0.201

row,Sequence,PBM E-score
1,GACGTACC,0.0335
2,AATATTAA,0.346
3,AGCCTAAT,0.0381
4,ATATATGA,0.185
5,AACAACGC,0.0808
6,CGGTCCAG,-0.297
7,GTATGATA,0.282
8,CACCCTTA,0.0425
9,ACGTCAAA,0.133
10,GCCAGGCA,-0.12
11,ATTTCCAC,0.244
12,GAAACTTC,-0.0423
13,ATCCGTCC,-0.00156
14,CGGGTACC,-0.163
15,ACGGCGGC,-0.0245
16,AGTGCTGA,-0.0503
17,ACGAACCG,-0.0334
18,CCCTTACC,-0.0844
19,AGCTCTTG,-0.278
20,ATTAAAGG,0.199
21,CAGGAACC,-0.123
22,CTCTTCCC,-0.136
23,AGCGTGAC,-0.116
24,AATTGGTC,0.197
25,AGATCTAT,-0.115

# 2 successive records from above, quoted:
row,Sequence,PBM E-score
15,ACGGCGGC,-0.0245
16,AGTGCTGA,-0.0503

# (listing goes on)

row,Sequence,PBM E-score
1,ATATCCAT,0.241
2,CACGTCAA,-0.134
3,CGCTGGTA,-0.0139
4,AACCACCT,0.0296
5,AAGCTTGG,-0.0871
6,ACGCCATG,-6e-05
7,ACCCAAGT,0.112
8,AACGATCG,0.175
9,ATACTGGG,-0.0943
10,AACTAGTC,0.131
11,AGGAGGAA,-0.26
12,ATTGTATA,0.298
13,TGGCAACA,0.0492
14,CGGAGGAA,-0.295
15,AGGTCTTG,-0.0861
16,AAGGGGGA,-0.0895
17,CCTTAGGA,-0.104
18,TATTTCAA,0.235
19,AATCCAGT,0.116
20,CAACAGGC,-0.0576
21,CCTGGCGA,-0.166
22,TGAGCGCA,-0.129
23,CGCCCAGA,-0.141
24,AGGGCCCC,-0.331
25,AGGGGTCC,-0.252

row,Sequence,PBM E-score
1,ACCGTTTG,-0.0393
2,TAGCTCAA,-0.0451
3,AAAGTTGC,-0.0736
4,TACCGTCA,-0.0498
5,GGATCCAA,0.138
6,CCGCTAAA,-0.0829
7,CCCAGCCC,-0.159
8,AAGTATCG,-0.0289
9,AATAGTTC,0.156
10,ACCGGTGC,-0.181
11,AATAACTC,0.0896
12,GGAACGTA,0.0448
13,GCATTGCC,-0.122
14,CGCGGAAG,-0.0356
15,AGCATGTG,0.0224
16,AGGCTAGG,-0.199
17,AAGGCGGT,-0.0625
18,CGATCATC,-0.113
19,TTGCACAA,0.186
20,CATGATGA,0.22
21,TACGCGAA,0.101
22,GTCCAAGA,-0.288
23,TCACGCCA,-0.0417
24,AATAATAA,0.308
25,TATAGGCA,-0.0824

row,Sequence,PBM E-score
1,TAGTTGAA,0.192
2,AGACTCCA,-0.125
3,AAGTACCA,0.125
4,CCATTTCC,0.17
5,CAGCCGAG,-0.198
6,AATTAAAT,0.228
7,CACGATAC,-0.197
8,GCGTTTTA,0.0039
9,ATCCTTCA,0.0774
10,GACTTCAC,0.0284
11,CATTGGGC,-0.218
12,GGCTTAAA,0.0372
13,GCGAGCGC,-0.137
14,GCACTCAC,-0.0809
15,ATTGCTTG,0.0953
16,GGTAAGGA,-0.109
17,CTCTCAAA,0.152
18,ATAACAGC,0.18
19,CCACGTTC,-0.0856
20,AAGCTGGT,-0.0365
21,TGAAGCCA,-0.0877
22,AAAACAAT,0.199
23,CGTCCACC,-0.24
24,GTGCCAAC,0.0191
25,AGGCGCGG,-0.132

row,Sequence,PBM E-score
1,GGAGAACC,-0.14
2,ATGGGAGA,0.0263
3,CTGTTTCA,0.0525
4,TAAACTTA,0.0742
5,AAAATCGT,0.114
6,AGATCCAT,-0.174
7,CAGAGCGC,-0.226
8,CCGGCTCC,-0.42
9,AGGGCCAC,-0.159
10,AGTGCGGA,0.2
11,CAATATCC,0.125
12,CTGTCTCA,-0.0216
13,AGCTTTGG,-0.142
14,AAACAGAT,0.182
15,ACGTAATG,0.354
16,GTTCGACA,0.192
17,CCGAAAAG,0.0584
18,GCGAAGCC,-0.304
19,ATCCCTGA,-0.0313
20,AGGGTCCC,-0.209
21,TGCCAGAA,0.0609
22,GAGAAGAA,-0.00995
23,AGCGATTG,-0.0399
24,ACTGAGAG,-0.107
25,AGGTTCTG,-0.122

row,Sequence,PBM E-score
1,CCTACATA,0.00754
2,GGGTCTGA,-0.171
3,AGTCGAAA,0.0945
4,GTGGCATA,-0.0366
5,GCCCGTCC,-0.347
6,ACTTCTAA,-0.0716
7,ACGGTACG,0.0175
8,TACTTGCA,0.077
9,CTAAATCA,0.125
10,AGAAATAG,0.188
11,GATACACA,0.14
12,CATTTTGG,-0.0184
13,ACACTGCT,-0.0253
14,CTCTCCGA,-0.275
15,GTACCCGA,-0.11
16,ACTGGACT,-0.0398
17,GGAACTCC,-0.0128
18,TACATGAA,0.0212
19,CACCTCGG,-0.0715
20,CACAGACG,-0.123
21,AGGACATA,0.0128
22,GTATCCTA,-0.0762

# Single values from the list.
# ACACTGCT | PBM E-score: -0.0253
# GTATCCTA | PBM E-score: -0.0762
# AGAAATAG | PBM E-score: 0.188
# CCTACATA | PBM E-score: 0.00754
# CACAGACG | PBM E-score: -0.123
